Laboratory results: patent US8653069B2, “Aralkyl substituted piperidine or piperazine derivatives and their use for treating schizophrenia” (Jiangsu Hengyi Pharmaceutical Co., Ltd., priority 2008, dated 2014)
Structures can show the parent of a compound that is named as a salt. At least one compound was matched to its structure with a doubt left.

Amino acid sequences for entries named in this document (tags omitted).
UniProt P14416, whole entry, species assumed: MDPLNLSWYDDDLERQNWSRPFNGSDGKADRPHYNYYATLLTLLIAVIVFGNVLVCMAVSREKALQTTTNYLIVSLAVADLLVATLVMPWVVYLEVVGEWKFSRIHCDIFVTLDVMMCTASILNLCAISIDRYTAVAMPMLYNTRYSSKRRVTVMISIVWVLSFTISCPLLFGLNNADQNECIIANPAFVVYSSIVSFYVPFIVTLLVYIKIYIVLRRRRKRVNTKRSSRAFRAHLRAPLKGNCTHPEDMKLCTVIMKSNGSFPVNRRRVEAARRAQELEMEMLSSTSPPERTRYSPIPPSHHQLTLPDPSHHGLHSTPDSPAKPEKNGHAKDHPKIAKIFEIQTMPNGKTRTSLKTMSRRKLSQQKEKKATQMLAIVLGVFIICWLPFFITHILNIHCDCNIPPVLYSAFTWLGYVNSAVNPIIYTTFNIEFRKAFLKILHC

How the values were obtained:
dopamine D2 receptor = dopamine D2 receptor (Homo sapiens, UniProt P14416); assay: [3H]Adenosine uptake test for D2 inherent agitation activity; format: cell-based; details: compared with 1 μM Quinpirole = 100% inherent activity
[1] = tested on: schizophrenia behaviors in mice induced by apomorphine; assay: In vivo anti-schizophrenia activity: apomorphine-induced stereotyped behavior in mice; details: female KM mice, oral gavage 30 minutes before apomorphine 10 mg/kg i.p.; II-1 20 mg/kg, aripiprazole 5 mg/kg, risperidone 0.25 mg/kg
Description: A Test of In Vivo Anti-Schizophrenia Activity of Compound II-1
Apomorphine: apomorphine is dissolved in 0.1% ascorbic acid to form a solution having a dosage of 10 mg/kg.
Aripiprazole is dissolved in physiological saline to form a solution having a dosage of 5 mg/kg, and subjected to ultrasonication for dissolving.
Risperidone is dissolved in physiological saline to form a solution having a dosage of 0.25 mg/kg.
Compound II-1 is formulated to 20 mg/kg, and is formulated in situ for use.
Female KM mice, 18-22 g, are randomly divided into a solvent control group, a model control group, a positive control group, and various treatment groups of the tested medicines. Groups for behavior observation test contain 5 mice each group, and groups for activity observation test contain 4 mice each group.
(1) Administration in mice: each group of mice is administrated with 0.1 ml/10 g of the various tested medicines by oral gavage. […]
The stereotyped behavior numbers of the mice in various groups at six time points are statistically analyzed to calculate an average number of each mouse, and the result is denoted by mean±SD.
The test result of stereotyped behavior is statistically analyzed using a LSD method; and observation result of the numbers of activities of the mice is statistically analyzed with repeated-measures analysis of variance and Q-test.

O=C1CCc2ccc(OCCCCN3CCC(c4noc5cc(F)ccc45)CC3)cc2N1 [II-1, 7-[4-(4-(6-fluoro-benzisoxazolyl)-1-piperidinyl)-n-butoxy]-3,4-dihydro-2(1H)-quinolinone hydrochloride]
activity on dopamine D2 receptor (FIG. 4) (dopamine D2 receptor): partial agonistic activity | number of stereotyped activities of mice compared with the model group [1]: reduced significantly
